Assay results published in the supplement of paper PMC10849652.
Some of the results follow.

Protein sequences, listed by entry. Tags and fused reporters are not part of them. Lines headed by an entry give the natural chain unless they say otherwise; changes in a name come on top.
UniProt Q9H0C8: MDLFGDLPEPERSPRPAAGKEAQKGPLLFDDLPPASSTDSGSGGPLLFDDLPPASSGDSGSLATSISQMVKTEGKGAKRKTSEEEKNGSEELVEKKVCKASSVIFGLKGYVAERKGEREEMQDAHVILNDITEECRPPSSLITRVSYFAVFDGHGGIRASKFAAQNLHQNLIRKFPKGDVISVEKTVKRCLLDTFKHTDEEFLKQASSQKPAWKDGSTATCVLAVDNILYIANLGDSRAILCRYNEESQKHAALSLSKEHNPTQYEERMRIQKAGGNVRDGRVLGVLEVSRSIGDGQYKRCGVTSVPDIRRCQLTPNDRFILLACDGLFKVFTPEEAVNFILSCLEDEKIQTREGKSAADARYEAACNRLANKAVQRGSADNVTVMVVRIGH
UniProt Q9UI26: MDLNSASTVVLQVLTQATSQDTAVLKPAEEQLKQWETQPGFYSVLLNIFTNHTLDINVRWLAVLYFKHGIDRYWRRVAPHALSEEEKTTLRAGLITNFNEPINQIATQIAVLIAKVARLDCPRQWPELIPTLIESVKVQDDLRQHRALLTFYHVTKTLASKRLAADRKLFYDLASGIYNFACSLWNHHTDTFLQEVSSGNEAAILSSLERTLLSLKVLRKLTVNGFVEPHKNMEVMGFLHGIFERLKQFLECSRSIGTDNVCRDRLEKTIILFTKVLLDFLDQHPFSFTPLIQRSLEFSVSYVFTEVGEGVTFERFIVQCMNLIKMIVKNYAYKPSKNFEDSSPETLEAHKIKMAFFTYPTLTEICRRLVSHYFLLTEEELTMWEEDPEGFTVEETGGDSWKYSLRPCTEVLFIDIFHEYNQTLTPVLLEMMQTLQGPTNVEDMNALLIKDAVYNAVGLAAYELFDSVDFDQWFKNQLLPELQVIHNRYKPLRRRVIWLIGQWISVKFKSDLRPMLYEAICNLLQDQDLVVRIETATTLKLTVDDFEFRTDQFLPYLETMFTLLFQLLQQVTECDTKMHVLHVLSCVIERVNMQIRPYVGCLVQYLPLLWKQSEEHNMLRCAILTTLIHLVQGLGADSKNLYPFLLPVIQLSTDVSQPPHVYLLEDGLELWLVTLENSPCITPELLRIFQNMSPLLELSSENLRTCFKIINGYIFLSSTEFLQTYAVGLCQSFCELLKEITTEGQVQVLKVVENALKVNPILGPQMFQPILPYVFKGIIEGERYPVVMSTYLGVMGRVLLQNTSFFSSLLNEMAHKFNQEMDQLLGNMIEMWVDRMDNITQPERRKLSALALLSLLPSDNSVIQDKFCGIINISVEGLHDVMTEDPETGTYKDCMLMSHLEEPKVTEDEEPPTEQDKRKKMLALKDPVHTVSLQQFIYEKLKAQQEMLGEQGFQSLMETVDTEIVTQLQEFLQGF
UniProt P50213: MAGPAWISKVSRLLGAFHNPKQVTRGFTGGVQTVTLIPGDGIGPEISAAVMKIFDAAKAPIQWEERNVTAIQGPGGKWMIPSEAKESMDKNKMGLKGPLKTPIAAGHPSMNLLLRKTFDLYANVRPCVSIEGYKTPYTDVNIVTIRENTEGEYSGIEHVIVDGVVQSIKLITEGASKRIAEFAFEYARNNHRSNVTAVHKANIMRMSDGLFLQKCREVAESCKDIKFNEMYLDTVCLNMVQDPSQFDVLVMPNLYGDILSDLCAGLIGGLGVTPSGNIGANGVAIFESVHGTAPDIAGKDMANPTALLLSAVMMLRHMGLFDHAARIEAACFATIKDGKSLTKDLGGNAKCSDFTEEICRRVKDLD
UniProt Q12894: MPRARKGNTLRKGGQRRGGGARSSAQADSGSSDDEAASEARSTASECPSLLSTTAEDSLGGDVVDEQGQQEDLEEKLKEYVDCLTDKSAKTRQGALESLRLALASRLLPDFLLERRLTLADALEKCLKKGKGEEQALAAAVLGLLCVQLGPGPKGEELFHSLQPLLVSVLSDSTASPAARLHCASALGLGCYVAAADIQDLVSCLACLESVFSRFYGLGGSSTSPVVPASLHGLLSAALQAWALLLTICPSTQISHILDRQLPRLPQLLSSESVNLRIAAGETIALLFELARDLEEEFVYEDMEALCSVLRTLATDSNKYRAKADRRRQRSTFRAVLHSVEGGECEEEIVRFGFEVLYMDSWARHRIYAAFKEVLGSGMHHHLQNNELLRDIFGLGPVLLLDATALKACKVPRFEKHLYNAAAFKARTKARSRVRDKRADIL
UniProt Q12905: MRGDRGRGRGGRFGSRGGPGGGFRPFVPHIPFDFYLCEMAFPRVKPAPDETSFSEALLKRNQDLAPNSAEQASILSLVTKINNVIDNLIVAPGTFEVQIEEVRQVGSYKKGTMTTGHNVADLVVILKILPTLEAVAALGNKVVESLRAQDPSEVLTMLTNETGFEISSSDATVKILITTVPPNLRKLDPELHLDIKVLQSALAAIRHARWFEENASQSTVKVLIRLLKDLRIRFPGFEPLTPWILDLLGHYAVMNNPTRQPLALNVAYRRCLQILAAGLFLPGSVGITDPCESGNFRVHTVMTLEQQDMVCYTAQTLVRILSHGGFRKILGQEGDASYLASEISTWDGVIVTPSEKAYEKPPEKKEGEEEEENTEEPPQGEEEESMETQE
UniProt Q13907: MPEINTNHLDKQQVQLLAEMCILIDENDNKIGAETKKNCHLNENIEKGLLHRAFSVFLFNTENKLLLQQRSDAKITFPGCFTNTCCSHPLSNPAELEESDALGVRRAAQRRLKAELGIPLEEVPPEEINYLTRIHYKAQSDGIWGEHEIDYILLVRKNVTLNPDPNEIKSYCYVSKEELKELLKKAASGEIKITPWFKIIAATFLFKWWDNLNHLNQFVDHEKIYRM
UniProt P15260: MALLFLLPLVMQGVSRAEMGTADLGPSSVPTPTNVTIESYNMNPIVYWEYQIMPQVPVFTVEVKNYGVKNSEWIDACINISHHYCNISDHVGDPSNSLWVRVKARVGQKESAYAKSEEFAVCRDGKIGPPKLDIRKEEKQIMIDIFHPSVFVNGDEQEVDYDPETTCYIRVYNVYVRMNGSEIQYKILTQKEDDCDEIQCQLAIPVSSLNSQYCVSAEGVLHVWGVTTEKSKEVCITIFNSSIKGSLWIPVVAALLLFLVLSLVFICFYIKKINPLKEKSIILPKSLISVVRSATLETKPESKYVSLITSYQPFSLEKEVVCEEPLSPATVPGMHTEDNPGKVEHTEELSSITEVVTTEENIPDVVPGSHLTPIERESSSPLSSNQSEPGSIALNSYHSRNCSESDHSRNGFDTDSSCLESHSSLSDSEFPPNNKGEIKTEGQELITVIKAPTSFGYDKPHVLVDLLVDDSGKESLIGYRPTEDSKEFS
UniProt Q8N201, whole entry, looked up: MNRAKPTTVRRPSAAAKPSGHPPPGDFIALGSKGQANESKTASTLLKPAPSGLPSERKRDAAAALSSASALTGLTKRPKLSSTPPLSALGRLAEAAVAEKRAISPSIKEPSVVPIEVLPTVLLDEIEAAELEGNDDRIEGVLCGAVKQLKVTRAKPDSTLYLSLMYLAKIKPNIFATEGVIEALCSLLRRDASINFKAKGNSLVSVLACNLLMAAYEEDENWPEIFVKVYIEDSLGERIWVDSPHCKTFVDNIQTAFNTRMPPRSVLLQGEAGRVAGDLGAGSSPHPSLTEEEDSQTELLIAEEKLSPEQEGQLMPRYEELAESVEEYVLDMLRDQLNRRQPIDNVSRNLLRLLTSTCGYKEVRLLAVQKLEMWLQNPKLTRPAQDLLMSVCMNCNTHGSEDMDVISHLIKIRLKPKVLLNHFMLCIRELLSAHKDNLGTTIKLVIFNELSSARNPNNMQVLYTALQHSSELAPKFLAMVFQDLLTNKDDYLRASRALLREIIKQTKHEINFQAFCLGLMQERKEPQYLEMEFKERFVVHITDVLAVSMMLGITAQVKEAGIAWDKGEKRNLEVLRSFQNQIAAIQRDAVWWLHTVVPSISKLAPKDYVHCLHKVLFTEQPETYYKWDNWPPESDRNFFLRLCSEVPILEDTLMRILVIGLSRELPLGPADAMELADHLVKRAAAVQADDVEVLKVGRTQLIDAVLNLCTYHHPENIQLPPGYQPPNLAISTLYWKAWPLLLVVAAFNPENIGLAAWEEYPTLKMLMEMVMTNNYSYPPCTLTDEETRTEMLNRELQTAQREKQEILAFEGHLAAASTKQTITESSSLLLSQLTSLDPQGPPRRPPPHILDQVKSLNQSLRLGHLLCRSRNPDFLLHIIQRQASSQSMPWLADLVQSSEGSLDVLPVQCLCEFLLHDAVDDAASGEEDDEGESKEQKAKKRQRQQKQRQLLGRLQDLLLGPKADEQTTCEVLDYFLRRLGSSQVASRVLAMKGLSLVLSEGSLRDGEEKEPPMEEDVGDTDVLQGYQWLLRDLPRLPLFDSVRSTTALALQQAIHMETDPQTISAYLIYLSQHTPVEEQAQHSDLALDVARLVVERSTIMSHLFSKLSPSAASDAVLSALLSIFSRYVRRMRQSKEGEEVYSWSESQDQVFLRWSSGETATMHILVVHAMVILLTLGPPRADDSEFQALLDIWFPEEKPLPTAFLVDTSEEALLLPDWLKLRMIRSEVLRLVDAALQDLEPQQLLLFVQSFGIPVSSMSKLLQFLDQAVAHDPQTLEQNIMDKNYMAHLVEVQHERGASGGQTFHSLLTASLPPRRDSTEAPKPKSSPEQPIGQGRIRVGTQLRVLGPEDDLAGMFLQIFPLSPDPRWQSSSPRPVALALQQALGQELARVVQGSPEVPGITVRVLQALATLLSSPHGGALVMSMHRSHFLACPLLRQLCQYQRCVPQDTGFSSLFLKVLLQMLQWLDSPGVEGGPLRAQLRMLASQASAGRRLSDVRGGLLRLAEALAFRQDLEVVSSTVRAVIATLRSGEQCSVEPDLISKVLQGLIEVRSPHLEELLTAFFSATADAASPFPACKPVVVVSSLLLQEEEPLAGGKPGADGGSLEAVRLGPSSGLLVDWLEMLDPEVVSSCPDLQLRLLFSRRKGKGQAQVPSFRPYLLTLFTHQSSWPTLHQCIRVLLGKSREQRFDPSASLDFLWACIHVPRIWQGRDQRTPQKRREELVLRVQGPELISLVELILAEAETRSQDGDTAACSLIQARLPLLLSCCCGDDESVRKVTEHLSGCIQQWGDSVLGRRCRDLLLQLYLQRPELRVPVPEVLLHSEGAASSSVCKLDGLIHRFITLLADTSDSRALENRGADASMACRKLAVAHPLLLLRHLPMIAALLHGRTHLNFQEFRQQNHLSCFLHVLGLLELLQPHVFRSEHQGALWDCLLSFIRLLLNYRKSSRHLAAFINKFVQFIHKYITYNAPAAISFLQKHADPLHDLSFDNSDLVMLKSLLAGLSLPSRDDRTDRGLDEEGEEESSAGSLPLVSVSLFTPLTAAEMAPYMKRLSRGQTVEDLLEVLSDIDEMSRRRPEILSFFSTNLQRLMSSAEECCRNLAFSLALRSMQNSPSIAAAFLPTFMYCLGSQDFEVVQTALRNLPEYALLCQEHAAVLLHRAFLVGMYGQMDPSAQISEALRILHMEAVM

Assays:
Assay in all cases: log2 fold change, soluble protein after heating vs DMSO (PISA); higher = thermal stabilisation; K562 cells, 10 uM, 30 min; active = over 0.2 and 3.5 SD of the protein, either way, in both replicates (recomputed)
[1] = compound: CS(=O)(=O)c1ccc(-c2cnc(N)c(C(=O)Nc3ccccc3)n2)cc1
In short: (§1)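 For each measurement, 10 μM compound was applied for 30 min to K562 cells at 2×10^6 cells/mL. Aliquots were heated for 3 min across 48°C-58°C, pooled, and extracted in PBS with 0.5% NP-40 at 4°C; the supernatant after 21,000xg for 90 min was soluble protein. This was quantified by TMTpro 16plex LC-MS/MS with channel sums equalised, and thermal stability was reported relative to control samples from duplicates, on a log2 fold-change scale.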

crizotinib = compound: C[C@@H](Oc1cc(-c2cnn(C3CCNCC3)c2)cnc1N)c1c(Cl)ccc(F)c1Cl [crizotinib]
In short: as §1

[2] = compound: C[C@@H]1COCCN1C2=NC(=NC(=C2)C3(CC3)S(=O)(=O)C)C4=C5C=CNC5=CC=C4
In short: as §1

[3] = compound: C[C@H](C1=CC=C(C=C1)C(=O)NC2=C3C=CNC3=NC=C2)N
In short: as §1

gandotinib = compound: Cc1cc(Nc2cc(CN3CCOCC3)c3nc(C)c(Cc4ccc(Cl)cc4F)n3n2)n[nH]1 [gandotinib]
In short: as §1

[4] = compound: Cc1cc(SCc2sc(-c3ccc(C(F)(F)F)cc3)nc2C)ccc1OCC(=O)O
In short: as §1

doramapimod = compound: Cc1ccc(-n2nc(C(C)(C)C)cc2NC(=O)Nc2ccc(OCCN3CCOCC3)c3ccccc23)cc1 [doramapimod]
In short: as §1

ispinesib = compound: Cc1ccc(C(=O)N(CCCN)[C@@H](c2nc3cc(Cl)ccc3c(=O)n2Cc2ccccc2)C(C)C)cc1 [ispinesib]
In short: as §1

bafetinib = compound: Cc1ccc(NC(=O)c2ccc(CN3CC[C@H](N(C)C)C3)c(C(F)(F)F)c2)cc1Nc1nccc(-c2cncnc2)n1 [bafetinib]
In short: as §1

[5] = compound: Cc1cccc(CC(=O)N2CCc3c2ccc(-c2cn(C)c4ncnc(N)c24)c3F)n1
In short: as §1

nilotinib = compound: Cc1cn(-c2cc(NC(=O)c3ccc(C)c(Nc4nccc(-c5cccnc5)n4)c3)cc(C(F)(F)F)c2)cn1 [nilotinib]
In short: as §1

[6] = compound: Cc1nc(Nc2n[nH]c3c2CN(C(=O)N[C@H](CN(C)C)c2ccccc2)C3(C)C)c2sccc2n1
In short: as §1

dasatinib = compound: Cc1nc(Nc2ncc(C(=O)Nc3c(C)cccc3Cl)s2)cc(N2CCN(CCO)CC2)n1 [dasatinib]
In short: as §1

[7] = compound: Cc1ncc(-c2ccnc(Nc3ccc(S(C)(=O)=O)cc3)n2)n1C(C)C
In short: as §1

[8] = compound: Cn1cc(-c2ccc3c(c2)CCN3C(=O)Cc2cccc(C(F)(F)F)c2)c2c(N)ncnc21
In short: as §1

[9] = compound: Cn1cc(-c2ccc3nnc(C(F)(F)c4ccc5ncccc5c4)n3n2)cn1
In short: as §1

tipifarnib = compound: Cn1cncc1[C@@](N)(c1ccc(Cl)cc1)c1ccc2c(c1)c(-c1cccc(Cl)c1)cc(=O)n2C [tipifarnib]
In short: as §1

mubritinib = compound: FC(F)(F)c1ccc(/C=C/c2nc(COc3ccc(CCCCn4ccnn4)cc3)co2)cc1 [mubritinib]
In short: as §1

duvelisib = compound: C[C@H](Nc1ncnc2nc[nH]c12)c1cc2cccc(Cl)c2c(=O)n1-c1ccccc1 [duvelisib]
In short: as §1

tozasertib = compound: Cc1cc(Nc2cc(N3CCN(C)CC3)nc(Sc3ccc(NC(=O)C4CC4)cc3)n2)n[nH]1 [tozasertib]
In short: as §1

Measured: log2 fold change

ILK (UniProt Q13418)
inactive: [1] 0.054 | crizotinib 0.038 | [2] -0.001 | [3] 0.046 | gandotinib -0.039 | [4] -0.046 | doramapimod -0.023 | ispinesib -0.153 | bafetinib -0.038 | [5] -0.012 | nilotinib 0.122 | [6] -0.024 | dasatinib -0.07 | [7] -0.002 | [8] 0.027 | [9] 0.005 | tipifarnib -0.023 | mubritinib 0.048

IRAK4 (UniProt Q9NWZ3)
active: [5] 0.236
inactive: [1] 0.034 | crizotinib -0.025 | [2] 0.003 | [3] 0.046 | gandotinib -0.107 | [4] 0.104 | doramapimod -0.047 | ispinesib -0.05 | bafetinib -0.047 | nilotinib -0.089 | [6] -0.047 | dasatinib -0.143 | [7] -0.01 | [8] 0.011 | [9] 0.035 | tipifarnib -0.116 | mubritinib -0.031

IPO7 (UniProt O95373)
inactive: [1] -0.011 | crizotinib -0.138 | [2] 0.042 | [3] -0.07 | gandotinib -0.185 | [4] 0.073 | doramapimod -0.054 | ispinesib -0.077 | bafetinib -0.018 | [5] 0.035 | nilotinib -0.058 | [6] -0.044 | dasatinib -0.074 | [7] -0.091 | [8] -0.018 | [9] 0.008 | tipifarnib -0.126 | mubritinib 0.079

ILKAP (UniProt Q9H0C8)
inactive: [1] 0.008 | crizotinib 0.064 | [2] 0.174 | [3] -0.054 | gandotinib -0.061 | [4] 0.085 | doramapimod -0.055 | ispinesib 0.05 | bafetinib 0.028 | [5] 0.079 | nilotinib 0.052 | [6] -0.117 | dasatinib -0.208 | [7] 0.02 | [8] 0.036 | [9] 0.045 | tipifarnib -0.093 | mubritinib 0.137

IGF2BP2 (UniProt Q9Y6M1)
active: [3] 0.531
inactive: [1] 0.009 | crizotinib -0.062 | [2] -0.186 | gandotinib 0.139 | [4] 0.158 | doramapimod 0.288 | ispinesib -0.182 | bafetinib 0.121 | [5] 0.004 | nilotinib -0.058 | [6] -0.018 | dasatinib 0.038 | [7] -0.039 | [8] -0.228 | [9] -0.191 | tipifarnib 0.069 | mubritinib -0.071

IGFBP2 (UniProt P18065)
inactive: [1] -0.205 | crizotinib -0.297 | [2] -0.051 | [3] -0.189 | gandotinib -0.475 | [4] 0.026 | doramapimod -0.305 | ispinesib -0.482 | bafetinib -0.512 | [5] 0.026 | nilotinib -0.034 | [6] 0.142 | dasatinib -0.1 | [7] 0.17 | [8] 0.17 | [9] -0.095 | tipifarnib -0.1 | mubritinib -0.135

IPO11 isoform 2 (UniProt Q9UI26)
inactive: [1] 0.037 | crizotinib 0 | [2] -0.015 | [3] -0.082 | gandotinib -0.076 | [4] 0.007 | doramapimod -0.028 | ispinesib 0.051 | bafetinib -0.056 | [5] 0.045 | nilotinib 0.012 | [6] -0.03 | dasatinib -0.049 | [7] 0.039 | [8] -0.008 | [9] -0.029 | tipifarnib -0.132 | mubritinib 0.069

Copied from the entries so far (two entries):
IGF2BP2 (UniProt Q9Y6M1)
active: [3] 0.531
inactive: [1] 0.009 | crizotinib -0.062 | [2] -0.186 | gandotinib 0.139 | [4] 0.158 | doramapimod 0.288 | ispinesib -0.182 | bafetinib 0.121 | [5] 0.004 | nilotinib -0.058 | [6] -0.018 | dasatinib 0.038 | [7] -0.039 | [8] -0.228 | [9] -0.191 | tipifarnib 0.069 | mubritinib -0.071

IGFBP2 (UniProt P18065)
inactive: [1] -0.205 | crizotinib -0.297 | [2] -0.051 | [3] -0.189 | gandotinib -0.475 | [4] 0.026 | doramapimod -0.305 | ispinesib -0.482 | bafetinib -0.512 | [5] 0.026 | nilotinib -0.034 | [6] 0.142 | dasatinib -0.1 | [7] 0.17 | [8] 0.17 | [9] -0.095 | tipifarnib -0.1 | mubritinib -0.135

The results go on.

IPO9 (UniProt Q96P70)
inactive: [1] -0.04 | crizotinib -0.031 | [2] 0.051 | [3] -0.042 | gandotinib -0.146 | [4] 0.041 | doramapimod 0.008 | ispinesib 0.062 | bafetinib 0.019 | [5] 0.031 | nilotinib -0.016 | [6] -0.06 | dasatinib 0.04 | [7] 0.011 | [8] -0.069 | [9] -0.06 | tipifarnib -0.084 | mubritinib -0.005

ITPRIP (UniProt Q8IWB1)
inactive: [1] -0.002 | crizotinib 0.056 | [2] 0.012 | [3] -0.039 | gandotinib -0.049 | [4] 0.038 | doramapimod 0.062 | ispinesib -0.037 | bafetinib -0.126 | [5] -0.016 | nilotinib -0.109 | [6] 0.035 | dasatinib -0.041 | [7] -0.08 | [8] 0.073 | [9] 0.012 | tipifarnib -0.007 | mubritinib 0.061

IDH3A (UniProt P50213)
inactive: [1] 0.023 | crizotinib 0.006 | [2] 0.07 | [3] -0.046 | gandotinib -0.037 | [4] 0.022 | doramapimod -0.024 | ispinesib 0.013 | bafetinib -0.016 | [5] 0.021 | nilotinib -0.027 | [6] -0.006 | dasatinib -0.005 | [7] -0.024 | [8] 0.045 | [9] 0.021 | tipifarnib -0.001 | mubritinib 0.06

IFRD2 isoform 2 (UniProt Q12894)
inactive: [1] 0.352 | crizotinib -0.047 | [2] 0.396 | [3] -0.035 | gandotinib 0.155 | [4] -0.059 | doramapimod 0.052 | ispinesib 0.089 | bafetinib -0.083 | [5] -0.019 | nilotinib 0.153 | [6] 0.047 | dasatinib 0.028 | [7] 0.236 | [8] 0.07 | [9] -0.176 | tipifarnib 0.08 | mubritinib 0.073

IMMT isoform 2 (UniProt Q16891)
inactive: [1] -0.042 | crizotinib -0.152 | [2] 0.046 | [3] -0.115 | gandotinib -0.075 | [4] -0.087 | doramapimod -0.034 | ispinesib -0.031 | bafetinib -0.081 | [5] 0.11 | nilotinib -0.007 | [6] -0.002 | dasatinib 0.144 | [7] -0.022 | [8] -0.037 | [9] 0.037 | tipifarnib 0.065 | mubritinib 0.066

IPO13 (UniProt O94829)
inactive: [1] -0.042 | crizotinib -0.134 | [2] 0.016 | [3] -0.028 | gandotinib -0.234 | [4] 0.01 | doramapimod 0.023 | ispinesib -0.13 | bafetinib -0.11 | [5] -0.006 | nilotinib -0.001 | [6] -0.094 | dasatinib -0.021 | [7] 0.071 | [8] -0.022 | [9] -0.025 | tipifarnib -0.106 | mubritinib 0.06

IFRD1 (UniProt O00458)
active: [2] 0.37
inactive: [1] 0.347 | crizotinib 0.004 | [3] 0.013 | gandotinib 0.104 | [4] -0.003 | doramapimod 0 | ispinesib -0.006 | bafetinib 0.118 | [5] -0.031 | nilotinib 0.165 | [6] 0.056 | dasatinib 0.071 | [7] 0.202 | [8] -0.011 | [9] -0.005 | tipifarnib 0.001 | mubritinib 0.1

ILF2 (UniProt Q12905)
inactive: [1] -0.168 | crizotinib -0.164 | [2] -0.153 | [3] 0.206 | gandotinib 0.07 | [4] 0.022 | doramapimod 0.063 | ispinesib 0.038 | bafetinib 0.093 | [5] -0.012 | nilotinib -0.011 | [6] 0.251 | dasatinib 0.121 | [7] 0.3 | [8] -0.151 | [9] -0.084 | tipifarnib 0.006 | mubritinib -0.071

IDI1 isoform 2 (UniProt Q13907)
inactive: [1] 0.052 | crizotinib 0.093 | [2] 0.062 | [3] -0.018 | gandotinib 0.014 | [4] -0.028 | doramapimod -0.063 | ispinesib 0.045 | bafetinib -0.019 | [5] -0.038 | nilotinib 0.049 | [6] 0.022 | dasatinib 0.002 | [7] -0.01 | [8] 0.096 | [9] -0.012 | tipifarnib 0.018 | mubritinib 0.054

IFNGR1 (UniProt P15260)
inactive: [1] 0.135 | [2] -0.1 | [3] 0.068 | gandotinib -0.053 | [4] -0.162 | ispinesib -0.041 | bafetinib -0.262 | [5] -0.027 | nilotinib 0.075 | [6] -0.015 | dasatinib 0.154 | [7] -0.126 | [8] 0.123 | [9] -0.123 | tipifarnib 0.119 | mubritinib 0.299

INTS1 (UniProt Q8N201)
inactive: [1] 0.118 | [2] -0.099 | duvelisib 0.221 | gandotinib 0.142 | tozasertib -0.071 | [4] -0.126 | ispinesib -0.006 | [5] -0.09 | nilotinib -0.057 | [6] 0.508 | dasatinib -0.128 | [7] 0.049 | [9] -0.239 | mubritinib -0.044
